Consider 80 molecules from paper PMC12040169 (PLOS Biology, 2025).

The list shows a part of the results.

In this test the test system is T1, CTL2-GFP (C. trachomatis L2/434/Bu, GFP-expressing).
T1 construct: L2/434/Bu, GFP-expressing
Also noted: species or system HeLa; Intracellular C. trachomatis growth in HeLa cells, bulk GFP fluorescence relative to DMSO. The settings on record: bulk GFP, single well; 28.5 h, 10 µM; inhibitor.
Take `CC(Oc1ccc(Cl)cc1Cl)C(=O)NC1CC(C)(C)NC(C)(C)C1` (centres unmarked) [CBK263951C]: the “% of control remaining” value stood at 115.11%.

As to `Cc1cccc(N2NC(=O)/C(=C/c3cccn3-c3ccc(S(N)(=O)=O)cc3)C2=O)c1` [CBK265660], the “% of control remaining” value came to 104.428%.

As to `O=C(CSc1nc2ccccc2o1)N1c2ccccc2Sc2ccc(C(F)(F)F)cc21` [CBK018044], the “% of control remaining” value is given as 73.9077%.

`O=C(Nc1ccc(F)cc1)N1C2CCC1CC(O)(c1cccnc1)C2` (centres unmarked) [CBK281946]: the “% of control remaining” value is reported as 75.85%.

As to `Cc1nc(C2CCCN2C(=O)CC2CCCC2)nc2c1CCCN2Cc1ccccn1` (centres unmarked) [CBK286252], the “% of control remaining” value is recorded as 122.131%.

`O=C(CC1CCCC1)N1CCC(c2nnc3n2CCCCC3)CC1` [CBK284630]: the “% of control remaining” value stood at 149.471%.

Take `Cn1cncc1C(=O)NCc1ccccc1` [CBK200199]: the “% of control remaining” value is given as 45.9719%.

`COC1CCN(C(=O)OCCc2cccnc2)CC1` [CBK200161]: the “% of control remaining” value was determined as 107.815%.

For `COc1ccc(-c2oc3ncn4nc(COc5ccccc5C)nc4c3c2-c2ccc(OC)cc2)cc1` [CBK265283], the “% of control remaining” value worked out at 118.092%.

Turning to `COc1ccc(Sc2nccnc2NC(C)C)cc1OC` [CBK115249], the “% of control remaining” value amounted to 110.703%.

Turning to `O=C(C1CCC1)N1CCC(c2onc3c2CCCCC3)CC1` [CBK284496], the “% of control remaining” value turned out to be 79.2283%.

On to `CC(C)C[C@H](NC(=O)NCCN1CCOCC1)C(=O)O` [CBK286619], for which the “% of control remaining” value came out at 134.659%.

Regarding `Cc1ccc(NC(=S)NCCNc2ccccn2)cc1Cl` [CBK297544], the “% of control remaining” value came out at 167.619%.

As for `Cc1nn(C2CCCO2)c(=O)nc1N` (centres unmarked) [CBK021028], the “% of control remaining” value came out at 125.252%.

Take `O=C(NCc1ccsc1)NCC1CCN(c2ccncc2)CC1` [CBK306394]: the “% of control remaining” value was 120.029%.

As for `Cc1ccccc1Nc1n[nH]c(=S)s1` [CBK015808], the “% of control remaining” value was determined as 145.345%.

Consider `CCCN(CCC)C(=O)Cn1cnc2ccc(Cl)cc2c1=O` [CBK304651], for which the “% of control remaining” value is on record as 142.182%.

Take `O=c1nc(NN=C2CCCCC2)cn[nH]1` [CBK018838]: the “% of control remaining” value came out at 119.394%.

With `O=C(NCCc1cccnc1)Nc1ccc(CN2CCCC2=O)cc1` [CBK306461], the “% of control remaining” value is 119.739%.

As to `Nc1ncc(-c2ccccc2CO)nc1N1CCN(CCO)CC1` [CBK063404], the “% of control remaining” value is recorded as 181.072%.

Take `Cc1c(NC(=S)NC(=O)C(C)C)cccc1-c1nc2ncccc2o1` [CBK269712]: the “% of control remaining” value amounted to 118.456%.

For `Cc1nc(C)n(C2CN(S(=O)(=O)c3ccc4scnc4c3)C2)n1` [CBK305889], the “% of control remaining” value is recorded as 144.222%.

Regarding `Cc1cc(NC(=O)CN(C)CC(=O)Nc2ccc(Br)cc2C)no1` [CBK260700], the “% of control remaining” value was found to be 116.849%.

As for `COc1ccc(CCCC(=O)Nc2ccc(N3CCNCC3)c3ccccc23)cc1OC` [CBK028406T], the “% of control remaining” value came out at 126.722%.

As to `CN1CCc2c(sc3nc(SCC(=O)c4ccccc4)n(-c4ccccc4)c(=O)c23)C1` [CBK262586], the “% of control remaining” value was determined as 119.839%.

Consider `Cc1noc(C2(O)CCN(Cc3sccc3Cl)C2)n1` (centres unmarked) [CBK304863], for which the “% of control remaining” value is on record as 100.393%.

As for `CN1CCCN(Cc2cccc3ccccc23)CC1` [CBK261531], the “% of control remaining” value turned out to be 100%.

`COC(=O)c1sccc1NC(=O)Cc1ccccc1[N+](=O)[O-]` [CBK268146]: the “% of control remaining” value is recorded as 99.9077%.

For `CN(C)CCN1CCN(c2nc(Br)cn3ccnc23)CC1` [CBK037501], the “% of control remaining” value came out at 148.364%.

With `COc1ccc(C(C)C)cc1-c1ccc(NS(C)(=O)=O)c2ccccc12` [CBK083747], the “% of control remaining” value is recorded as 117.234%.

As to `CC(=O)c1ccccc1NC(C#N)c1ccccc1` (centres unmarked) [CBK057758], the “% of control remaining” value is given as 119.236%.

On to `O=C(Cn1c(-c2ccc(F)cc2)cc2cccnc21)NC1CC1` [CBK284861], for which the “% of control remaining” value is 107.896%.

In the case of `CCc1nnc(NS(=O)(=O)c2ccc(NCc3ccccc3O)cc2)s1` [CBK085149], the “% of control remaining” value turned out to be 59.9406%.

For the molecule `CCSc1nnc(Cc2cc(=O)[nH]c(=O)[nH]2)n1-c1ccc(F)cc1` [CBK287500], the “% of control remaining” value came to 148.231%.

Regarding `CN(C)CCNC(=O)c1cncc(-c2ccc(C(=O)N3CCOCC3)cc2)c1` [CBK158619], the “% of control remaining” value amounted to 139.381%.

On to `COc1cccc(C(=O)N2CCN(C(=O)Nc3ccccc3Br)CC2)c1` [CBK154783], for which the “% of control remaining” value is 96.4083%.

For `Cc1cc(OCC(=O)Nc2ccccc2N2CCN(S(C)(=O)=O)CC2)ccc1Cl` [CBK269410], the “% of control remaining” value amounted to 86.0904%.

For `O=C(Nc1ccc(C2(c3ccc(NC(=O)c4cccc5ccccc45)cc3)c3ccccc3-c3ccccc32)cc1)c1cccc2ccccc12` [CBK261163], the “% of control remaining” value is on record as 89.0166%.

Regarding `CCOC(=O)c1c(NC(=O)CSc2nncn2C)sc(C)c1C` [CBK267970], the “% of control remaining” value was 140.696%.

Regarding `CCCCn1nc(C(=O)N2CCCCC2c2ncc(-c3cccc(F)c3)[nH]2)ccc1=O` (centres unmarked) [CBK291149], the “% of control remaining” value is listed as 110.079%.

With `OC(CN1CCC(O)(c2ccc(F)cc2)CC1)c1ccc(-c2ccccc2)cc1` (centres unmarked) [CBK286328], the “% of control remaining” value is on record as 81.0044%.

For the molecule `N#Cc1ccc(CN2CCCN(S(=O)(=O)c3ccc(C(F)(F)F)cc3Cl)CC2)cc1` [CBK062939], the “% of control remaining” value came out at 80.8772%.

Turning to `Cc1cc(Sc2nc[nH]n2)c2c(Cl)ccc(Cl)c2n1` [CBK025959], the “% of control remaining” value stood at 103.266%.

Take `CCOc1ccc(S(=O)(=O)N(C)c2ccc(OCC(=O)O)cc2)cc1` [CBK296119]: the “% of control remaining” value came out at 102.886%.

As for `NC(=O)NC(CC(=O)N1CCc2sccc2C1)c1cccc(Br)c1` (centres unmarked) [CBK305813], the “% of control remaining” value is 162.219%.

In the case of `Fc1ccc2c(c1)[C@@H](Oc1cncc(NC3CCCNC3)n1)CCO2` (some centres unmarked) [CBK172256G], the “% of control remaining” value is on record as 125.045%.

`CN1CC[C@H](c2ccccc2)[C@@H]2[C@H]1CCCCN2C(=O)c1ccc(=O)oc1` [CBK285527]: the “% of control remaining” value is 145.767%.

In the case of `CCN1CCCC1CNC(=O)c1ccc(-c2ccco2)nc1N1CCN(C(=O)c2ccco2)CC1` (centres unmarked) [CBK076206], the “% of control remaining” value stood at 110.702%.

With `O=C1NC2(CCc3ccccc31)CCN(Cc1cccnc1)C2` (centres unmarked) [CBK284620], the “% of control remaining” value is given as 148.573%.

Take `CC(=O)c1cc(C(=O)NCc2ccc(C)cc2)n(C)c1` [CBK296750]: the “% of control remaining” value was 115.887%.

Regarding `Cn1cnc2ccc(NC(=O)CC3CCN(C(=O)CC4CCCCC4)CC3)cc21` [CBK285961], the “% of control remaining” value is reported as 149.641%.

Take `c1cncc(COc2cncc(OC3CCN(CCN4CCOCC4)C3)n2)c1` (centres unmarked) [CBK084463]: the “% of control remaining” value was 128.704%.

For the molecule `COC(=O)C(C)(C)NC(=O)c1ccn(-c2cc(C)ccc2OC)n1` [CBK305989], the “% of control remaining” value is reported as 115.522%.

In the case of `CCN(CC)C(=O)C1CCCN(C(=O)NCCc2ccc(OC)c(OC)c2)C1` (centres unmarked) [CBK156134], the “% of control remaining” value was 126.363%.

As for `CCC(Oc1ccccc1)C(=O)Nc1cc(C)on1` (centres unmarked) [CBK288152], the “% of control remaining” value came to 133.971%.

As for `FC(F)(F)c1ccccc1NC(=S)Nc1ncn(Cc2ccc(Cl)c(Cl)c2)n1` [CBK267130], the “% of control remaining” value is 173.511%.

For the molecule `O=C(NC(=O)C1CCN(CCc2ccc3c(c2)CCO3)CC1)Nc1ccccc1Cl` [CBK035147], the “% of control remaining” value is listed as 126.014%.

In the case of `NC(=O)c1ccc(C(=O)OCc2ccc(-c3ccccc3)cc2)cc1` [CBK297736], the “% of control remaining” value came to 104.566%.

Turning to `Cc1cccc(C)c1OCC(=O)NC(C)C(=O)O` (centres unmarked) [CBK287185], the “% of control remaining” value turned out to be 122.534%.

For the molecule `O=C(CSc1nc2[nH]ncc2c(=O)n1-c1ccccc1)Nc1nsc(-c2ccccc2)n1` [CBK266486], the “% of control remaining” value worked out at 110.666%.

In the case of `COc1ccc(Cl)cc1NC(=O)Cn1nc(-c2ccccc2)ccc1=O` [CBK270124], the “% of control remaining” value was found to be 133.656%.

As for `CCc1cn(CC(C(=O)OC)N(C)C)c(=O)[nH]c1=O` (centres unmarked) [CBK289706], the “% of control remaining” value is 111.306%.

Consider `CCc1nc(COC(=O)C2CCN(C(=O)c3ccc(F)cc3)CC2)cs1` [CBK305725], for which the “% of control remaining” value worked out at 105.587%.

On to `CCN1C(=O)C2(CC(=O)N(Cc3ccccc3)C2=O)c2cc(Cl)ccc21` (centres unmarked) [CBK075233], for which the “% of control remaining” value was determined as 163.974%.

For `CCOc1ccc(S(=O)(=O)N2CCCC(C(=O)NCCO)C2)cc1` (centres unmarked) [CBK269968], the “% of control remaining” value is 118.105%.

Turning to `Cc1ccc(-n2nnc(C(=O)N3CCCCC3C(=O)O)c2C)cc1` (centres unmarked) [CBK304109], the “% of control remaining” value was 146.994%.

As for `COc1cc2c(=O)n(C)c3nncn3c2cc1OC` [CBK288182], the “% of control remaining” value was determined as 108.351%.

Regarding `COc1ccc(/C=C/C(=O)O)cc1S(=O)(=O)N1CCCC1` [CBK058388], the “% of control remaining” value was 121.15%.

For the molecule `O=C(c1cccnc1)C1CCN(C(=O)Cc2cccc(F)c2)CC1` [CBK283506], the “% of control remaining” value was 108.038%.

For the molecule `CCOC(=O)CSc1nc2ccc(I)cc2c(=O)n1Cc1ccccc1` [CBK266602], the “% of control remaining” value came out at 133.871%.

As to `Cc1ccc(C2CCCN2C(=O)C(C)Cn2cncn2)cc1C` (centres unmarked) [CBK282213], the “% of control remaining” value stood at 106.924%.

Take `Cc1cccc(-n2nc3c4nonc4ccc3[n+]2[O-])c1C` [CBK264626]: the “% of control remaining” value amounted to 100%.

For `COCCn1c(SCC(=O)N2CCCc3ccccc32)nc(O)cc1=O` [CBK304191], the “% of control remaining” value came out at 63.7427%.

With `COc1ccc(-c2cc(C(=O)N/N=C/c3c(C)[nH]c4ccccc34)[nH]n2)cc1` [CBK262884], the “% of control remaining” value came to 83.2264%.

In the case of `c1ccc2sc(-c3cc(Nc4ccc5[nH]ccc5c4)ncn3)cc2c1` [CBK090858], the “% of control remaining” value is given as 184.046%.

`O=C(c1c(NS(=O)(=O)c2ccc3ccccc3c2)sc2c1CCCC2)N1CCOCC1` [CBK028636]: the “% of control remaining” value was 109.111%.

In the case of `COc1cc(CN2CCN(C(=O)c3cccnc3)CC2)cc(OC)c1O` [CBK265210G], the “% of control remaining” value is 100%.

`NC(=O)[C@H]1C[C@@H](O)[C@H](O)[C@H]2[C@@H]1S/C(=N\c1ccc(Cl)cc1)N2Cc1ccccc1` [CBK288940]: the “% of control remaining” value came out at 109.39%.

For the molecule `O=C(O)C(=C/C=C/Br)C(=O)O` [CBK260906], the “% of control remaining” value stood at 110.817%.

Turning to `O=C1CC(N2CCN(C3CC(=O)N(Cc4ccccc4)C3=O)CC2)C(=O)N1Cc1ccccc1` (centres unmarked) [CBK269198], the “% of control remaining” value worked out at 114.792%.
